According to patent US5097013A (Kao Corporation, priority 1988, dated 1992):

Assays:
[1] = general procedure: peptide synthesis; chloromethyl, oxymethyl or benzhydrylamine resin; 4-(oxymethyl)phenylacetamidomethyl resin; BHA resin (Example 53); settings: for isolated mass / isolated yield: whole synthesis; for isolated yield: scale of the general procedure 0.5 mmol (Example 53); for step yield: late stage modification step
[2] = Fmoc solid-phase peptide synthesis; chloromethyl, oxymethyl or benzhydrylamine resin; 4-(oxymethyl)phenylacetamidomethyl resin; BHA resin (Example 53); settings: whole synthesis; for isolated yield: scale of the general procedure 0.5 mmol (Example 53)

Substance | isolated mass [1] [mg] | isolated yield [1] [%] | isolated mass [2] [mg] | isolated yield [2] [%] | step yield [1] [%]
H-L-Trp-L-Leu-Gly-L-Arg-L-Glu-OH | 148 | 44.9 |  |  | 
PEPTIDE1{W.L.G.R.Q.N.G.S.Q.[am]}$$$$V2.0 | 108 | 19.6 |  |  | 
PEPTIDE1{W.L.G.R}$$$$V2.0 |  |  | 333 | 63.5 | 
H-LGREDGSE-OH |  |  | 220 | 51.1 | 
H-WPREDGSE-OH | 122 | 25.0 |  |  | 
H-FLGREDGSE-OH | 232 | 46.0 |  |  | 
Fmoc-WLGREDGSE-OH |  |  | 180 | 28.4 | 
H-WLGREDGCE-OH |  |  | 199 | 37.4 | 
H-WLGREDG-OH | 107 | 25.7 |  |  | 
Fmoc-WLGRE[dD]-OH |  |  | 180 | 36.0 | 
H-WLGREDGLL-NH2 |  |  | 102 | 19.3 | 
H-WLGQRS-OH |  |  | 141 | 37.8 | 
H-[dW]LGRED-OH |  |  |  |  | 100
H-W[dL]GREDGSE-OH |  |  | 288 | 55.0 | 
H-RLGRQDK-OH |  |  | 309 | 70.9 | 
PEPTIDE1{[Fmoc].W.[dL].G.R.E.D}$$$$V2.0 |  |  | 405 | 77.3 | 
H-RLGRQDG-NH2 |  |  | 240 | 60.0 | 
H-WLGREDGSE-NH2 |  |  | 270 | 51.6 | 
H-WLGREDGSD-OH | 335 | 64.0 |  |  | 
Fmoc-WLGRED-OH |  |  | 162 | 32.5 | 
H-WLG[dR]EDGSE-OH |  |  | 274 | 52.3 | 
PEPTIDE1{[Fmoc].W.L.G.R.E.[dD]}$$$$V2.0 |  |  | 100 | 20.3 | 
H-WVREDGSE-OH |  |  | 323 | 66.1 | 
H-WAGRED-OH |  |  | 77 | 21.0 | 
H-WLGRED-OH | 241 | 62.2 |  |  | 
H-WLGREDGS-OH | 184 | 40.0 |  |  | 
Fmoc-WLGR[dE]D-OH |  |  | 178 | 35.7 | 

Substance | isolated mass [1] [mg] | isolated yield [1] [%] | isolated mass [2] [mg] | isolated yield [2] [%] | step yield [1] [%]
H-WIIREDGSE-OH |  |  | 326 | 59.1 | 
PEPTIDE1{[Fmoc].W.L.G.R.E.D.G.S.E}$$$$V2.0 | 261 | 50.0 |  |  | 
Fmoc-W[dL]GRED-OH |  |  | 119 | 23.9 | 
H-WLGRENGSE-OH | 355 | 67.8 |  |  | 
H-WLGRED-NH2 |  |  | 152 | 39.3 | 
H-MWLGRED-OH |  |  | 210 | 46.4 | 
H-WLGRQDGSE-OH | 194 | 37.1 |  |  | 
H-L-Arg-L-Leu-Gly-L-Arg-L-Gln-OH |  |  | 204 | 64.9 | 
H-L-Trp-L-AIa-Gly-L-Arg-L-Glu-L-Asp-Gly-L-Ser-L-Glu-NH2 |  |  | 159 | 31.6 | 
H-L-Glu-L-Asp-Gly-L-Ser-L-Glu-OH |  |  | 163 | 60.7 | 
PEPTIDE1{[Fmoc].W.L.G.R.[dE].D}$$$$V2.0 |  |  | 152 | 32.6 | 
H-W[dL]GRED-OH |  |  |  |  | 96.4
Fmoc-[dW]LGRED-OH |  |  | 138 | 27.7 | 
H-WAGREDGSE-OH | 285 | 56.7 |  |  | 
H-WLGLEDGSE-OH |  |  | 317 | 63.1 | 
H-WLGREDGAE-OH | 266 | 51.5 |  |  | 
H-WLGRGDGSE-OH |  |  | 182 | 37.3 | 
H-WLGKEDGSE-OH | 203 | 39.8 |  |  | 
H-WLGR[dE]DGSE-OH |  |  | 180 | 36.0 | 
PEPTIDE1{[Fmoc].[dW].L.G.R.E.D}$$$$V2.0 |  |  | 268 | 51.1 | 
H-L-Trp-L-Leu-Gly-L-Arg-OH |  |  | 52 | 19.4 | 
H-KWLGREDGSE-OH |  |  | 168 | 28.6 | 
H-RLGRQDG-OH |  |  | 260 | 65.0 | 
H-WGGREDGSE-OH |  |  | 147 | 29.6 | 
PEPTIDE1{W.L.G.R.G.D.G.S.E}$$$$V2.0 |  |  | 50 | 16.1 | 
H-WLGRQNGSQ-NH2 |  |  | 386 | 73.9 | 
PEPTIDE1{[Fmoc].W.L.G.R.E.D}$$$$V2.0 |  |  | 307 | 58.2 | 

Some peptides are written in HELM: one residue between dots, names in brackets for other building blocks, links after the first $. Square brackets hold non-standard residues; d marks the D form. * marks the point of attachment. Fmoc = O=C(OCC1c2ccccc2-c2ccccc21)*
